Data on 34 compounds can be found in the supplement of paper PMC4635364.

For assay [1], the system named is ReNCell VM. Put plainly: neuronal differentiation score (DCX+ cell fraction vs untreated, manual image score) (score (-3 to 3)); higher = more neuronal differentiation. To be noted: 2 uM, 2 weeks.
Assay [2] concerns ReNCell VM. Briefly: dopaminergic neuron differentiation score (TH+ cell fraction vs untreated, manual image score) (score (0 to 3)); higher = more TH+ dopaminergic neuron differentiation. To be noted: 2 uM, 4 weeks, BDNF 10 ng/ml + GDNF 10 ng/ml.

Structures can show the parent of a compound that is named as a salt. The list shows a part of the results. Repeats in this data set agree poorly, so a single value says little.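 Human fetal ventral-midbrain neural progenitor line ReNCell VM, differentiated without mitogens. Images stained for doublecortin (early neurons) or tyrosine hydroxylase (dopaminergic neurons) were scored by blinded raters against untreated wells (0 = no change). Repeats and both raters were averaged, and compounds averaging 2 or higher were picked as hits for retesting.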

Regarding `O=C(CCc1ccc(O)cc1)c1c(O)cc(O)cc1O` [Phloretin], the neuronal differentiation score in the assay on ReNCell VM [1] (library: LOPAC) was inactive: 0. Moreover, the “dopaminergic neuron differentiation score” value with ReNCell VM [2] (library: LOPAC) was inactive: 0.

Take `N[C@@H](COP(=O)(O)O)C(=O)O` [O-Phospho-L-serine]: the neuronal differentiation score in the assay on ReNCell VM [1] (library: LOPAC) is inactive: 0. Besides, the “dopaminergic neuron differentiation score” value in the assay with ReNCell VM [2] (library: LOPAC) is inactive: 0.

Turning to `CC(CCc1ccccc1)NCC(O)c1ccc(O)c(C(N)=O)c1` (stereo not drawn), in the assay with ReNCell VM [1] (library: Spectrum), the neuronal differentiation score is inactive: 0. Moreover, in the assay on ReNCell VM [2] (library: Spectrum), the “dopaminergic neuron differentiation score” value was inactive: 0.

For the compound `COc1ccc(C(=O)NCc2cccnc2)cc1C(=O)NCc1cccnc1` [Picotamide monohydrate], the neuronal differentiation score in the assay with ReNCell VM [1] (library: Prestwick) was inactive: 0. Also, the “dopaminergic neuron differentiation score” value in the assay with ReNCell VM [2] (library: Prestwick) was inactive: 0.

For the compound `O=C(O)Cc1ccc(-c2ccccc2)cc1`, the neuronal differentiation score in the assay with ReNCell VM [1] (library: Spectrum) is inactive: 0. The “dopaminergic neuron differentiation score” value in the assay with ReNCell VM [2] (library: Spectrum) is inactive: 0.

For the compound `C[N+](C)(C)CC[N+]1(C)Cc2c(Cl)c(Cl)c(Cl)c(Cl)c2C1` [Chlorisondamine diiodide], in the assay with ReNCell VM [1] (library: Tocriscreen), the neuronal differentiation score was inactive: 0. In addition, the “dopaminergic neuron differentiation score” value with ReNCell VM [2] (library: Tocriscreen) was inactive: 1.

Turning to `CN1[C@@H](CC(=O)c2ccccc2)CCC[C@H]1C[C@H](O)c1ccccc1`, the neuronal differentiation score in the assay with ReNCell VM [1] (library: Spectrum) was inactive: 0. For the same compound, the “dopaminergic neuron differentiation score” value in the assay with ReNCell VM [2] (library: Spectrum) was inactive: 0.

On to `CCCCN1CCC(CCC(=O)c2cc(Cl)c(N)cc2OC)CC1`, for which the neuronal differentiation score in the assay with ReNCell VM [1] (library: Tocriscreen) is inactive: 0. Also, the “dopaminergic neuron differentiation score” value in the assay on ReNCell VM [2] (library: Tocriscreen) is inactive: 0.

For `C[N+](C)(C)CC=O` [Betaine aldehyde chloride], the neuronal differentiation score in the assay with ReNCell VM [1] (library: LOPAC) is inactive: 0. In addition, the “dopaminergic neuron differentiation score” value with ReNCell VM [2] (library: LOPAC) was inactive: 0.

Consider `COc1ccc2c(c1)OC[C@@H](Cc1ccc(OC)c(OC)c1)[C@H]2O`, for which the neuronal differentiation score in the assay on ReNCell VM [1] (library: Spectrum) is inactive: 0. Besides, the “dopaminergic neuron differentiation score” value in the assay with ReNCell VM [2] (library: Spectrum) is inactive: 0.

Regarding `Cc1nc2n(c(=O)c1CCN1CCC(c3noc4cc(F)ccc34)CC1)CCCC2`, in the assay with ReNCell VM [1] (library: Spectrum), the neuronal differentiation score is inactive: 0. In addition, the “dopaminergic neuron differentiation score” value in the assay with ReNCell VM [2] (library: Spectrum) is inactive: 0.

In the case of `c1ccc2c(Cc3c[nH]c4ccccc34)c[nH]c2c1`, the neuronal differentiation score with ReNCell VM [1] (library: Spectrum) is inactive: 0. For the same compound, the “dopaminergic neuron differentiation score” value in the assay with ReNCell VM [2] (library: Spectrum) was inactive: 0.

As for `CCCOc1ccc(C(=O)OCCN(CC)CC)cc1N` [Proparacaine hydrochloride], the neuronal differentiation score with ReNCell VM [1] (library: Prestwick) is inactive: 0. Besides, the “dopaminergic neuron differentiation score” value in the assay with ReNCell VM [2] (library: Prestwick) is active: 3.

In the case of `CN(C)CCN(Cc1ccc(Cl)cc1)c1ccccn1` [Chloropyramine hydrochloride], in the assay with ReNCell VM [1] (library: Prestwick), the neuronal differentiation score was inactive: 0. Also, in the assay on ReNCell VM [2] (library: Prestwick), the “dopaminergic neuron differentiation score” value was inactive: 0.

Regarding `CC(=O)OCC(=O)[C@@]12N=C(C)O[C@@H]1C[C@H]1[C@@H]3CCC4=CC(=O)C=C[C@]4(C)[C@H]3[C@@H](O)C[C@@]12C` [Deflazacort], the neuronal differentiation score with ReNCell VM [1] (library: Prestwick) was inactive: 0. Also, the “dopaminergic neuron differentiation score” value with ReNCell VM [2] (library: Prestwick) was inactive: 0.

Turning to `CC(=O)NC[C@H]1CN(c2ccc(N3CCOCC3)c(F)c2)C(=O)O1`, in the assay with ReNCell VM [1] (library: Spectrum), the neuronal differentiation score was inactive: 0. Moreover, the “dopaminergic neuron differentiation score” value in the assay on ReNCell VM [2] (library: Spectrum) is inactive: 0.

For the compound `FCOC(C(F)(F)F)C(F)(F)F`, in the assay with ReNCell VM [1] (library: Spectrum), the neuronal differentiation score was inactive: 0. Also, the “dopaminergic neuron differentiation score” value in the assay on ReNCell VM [2] (library: Spectrum) is inactive: 0.

Regarding `C#C[C@]1(O)CC[C@H]2[C@@H]3CCc4cc(O)ccc4[C@H]3CC[C@@]21C`, the neuronal differentiation score with ReNCell VM [1] (library: Spectrum) was inactive: -1. The “dopaminergic neuron differentiation score” value in the assay on ReNCell VM [2] (library: Spectrum) was inactive: 0.

`CCN(CC)C(=O)c1cccnc1`: in the assay with ReNCell VM [1] (library: Spectrum), the neuronal differentiation score is inactive: 0. For the same compound, in the assay on ReNCell VM [2] (library: Spectrum), the “dopaminergic neuron differentiation score” value was inactive: 0.

With `OC[C@H]1NC[C@@H](O)[C@@H]1O` [1,4-Dideoxy-1,4-imino-D-arabinitol], the neuronal differentiation score in the assay with ReNCell VM [1] (library: LOPAC) was inactive: 0. Also, the “dopaminergic neuron differentiation score” value in the assay with ReNCell VM [2] (library: LOPAC) is inactive: 0.

As to `O=C1C(O)=C(O)C(=O)C(O)=C1O`, in the assay on ReNCell VM [1] (library: Spectrum), the neuronal differentiation score is inactive: 0. Further, the “dopaminergic neuron differentiation score” value with ReNCell VM [2] (library: Spectrum) is inactive: 0.

Take `Nc1nc(NC2CC2)c2ncn([C@H]3C=C[C@@H](CO)C3)c2n1` [Abacavir Sulfate]: in the assay with ReNCell VM [1] (library: Prestwick), the neuronal differentiation score is inactive: 0. In addition, in the assay with ReNCell VM [2] (library: Prestwick), the “dopaminergic neuron differentiation score” value is inactive: 0.

Regarding `COC1=C(OC)C(=O)c2ccccc2C1=O` [2,3-Dimethoxy-1,4-naphthoquinone], in the assay on ReNCell VM [1] (library: LOPAC), the neuronal differentiation score was inactive: 0. Also, in the assay on ReNCell VM [2] (library: LOPAC), the “dopaminergic neuron differentiation score” value was inactive: 0.

For the compound `COc1c2ccoc2cc2oc(C)cc(=O)c12`, the neuronal differentiation score with ReNCell VM [1] (library: Spectrum) is inactive: 0. In addition, the “dopaminergic neuron differentiation score” value with ReNCell VM [2] (library: Spectrum) was inactive: 0.

For `CCCCCCCC/C=C\CCCCCCCC(=O)NCCO` [N-Oleoylethanolamine], the neuronal differentiation score with ReNCell VM [1] (library: LOPAC) is inactive: 0. Besides, in the assay on ReNCell VM [2] (library: LOPAC), the “dopaminergic neuron differentiation score” value was inactive: 0.

With `Cc1cc(C)c(S(=O)(=O)Nc2cccc(C(F)(F)F)c2)c(C)c1`, the neuronal differentiation score with ReNCell VM [1] (library: Tocriscreen) was inactive: 0. Besides, the “dopaminergic neuron differentiation score” value in the assay with ReNCell VM [2] (library: Tocriscreen) was inactive: 0.

Consider `Cc1c(CC(C)(C)C(=O)O)n(Cc2ccc(Cl)cc2)c2ccc(F)cc12`, for which, in the assay on ReNCell VM [1] (library: Tocriscreen), the neuronal differentiation score is inactive: 0. In the assay on ReNCell VM [2] (library: Tocriscreen), the “dopaminergic neuron differentiation score” value is inactive: 0.

As to `C[C@]12CC[C@H]3C(=CCc4cc(O)ccc43)[C@@H]1CCC2=O` [Equilin], in the assay with ReNCell VM [1] (library: Prestwick), the neuronal differentiation score was inactive: 0. Besides, the “dopaminergic neuron differentiation score” value in the assay with ReNCell VM [2] (library: Prestwick) was inactive: 0.

`CN[C@H](CC(C)C)C(=O)N[C@H]1C(=O)N[C@@H](CC(N)=O)C(=O)N[C@H]2C(=O)N[C@H]3C(=O)N[C@H](C(=O)N[C@H](C(=O)O)c4cc(O)cc(O)c4-c4cc3ccc4O)[C@H](O)c3ccc(c(Cl)c3)Oc3cc2cc(c3O[C@@H]2O[C@H](CO)[C@@H](O)[C@H](O)[C@H]2O[C@H]2C[C@](C)(N)[C@H](O)[C@H](C)O2)Oc2ccc(cc2Cl)[C@H]1O`: the neuronal differentiation score with ReNCell VM [1] (library: Spectrum) was inactive: 0. For the same compound, the “dopaminergic neuron differentiation score” value with ReNCell VM [2] (library: Spectrum) is inactive: 0.

On to `Nc1ncnc2c1nc(Sc1ccc(Cl)cc1)n2C1OC2COP(=O)(O)O[C@@H]2[C@@H]1O` (stereo partly drawn) [8-(4-Chlorophenylthio)-cAMP sodium], for which the neuronal differentiation score with ReNCell VM [1] (library: LOPAC) is inactive: 0. The “dopaminergic neuron differentiation score” value with ReNCell VM [2] (library: LOPAC) is inactive: 0.

As for `NC[C@H]1CC[C@H](C(=O)O)CC1` [Tranexamic acid], in the assay with ReNCell VM [1] (library: Prestwick), the neuronal differentiation score is inactive: 0. Also, in the assay with ReNCell VM [2] (library: Prestwick), the “dopaminergic neuron differentiation score” value is inactive: 0.

As for `OC[C@@H](O)[C@@H](O[C@@H]1O[C@H](CO)[C@H](O)[C@H](O)[C@H]1O)[C@H](O)[C@@H](O)CO`, the neuronal differentiation score in the assay with ReNCell VM [1] (library: Spectrum) was inactive: 0. Also, in the assay with ReNCell VM [2] (library: Spectrum), the “dopaminergic neuron differentiation score” value was inactive: 0.

Consider `COc1ccc2c(C)cc(=O)oc2c1`, for which the neuronal differentiation score in the assay on ReNCell VM [1] (library: Spectrum) is inactive: 0. In the assay on ReNCell VM [2] (library: Spectrum), the “dopaminergic neuron differentiation score” value is inactive: 0.

Consider `CC1/C=C/C=C/C=C/C=C/C=C/C=C/C=C/C(OC2O[C@H](C)[C@@H](O)[C@H](N)[C@@H]2O)CC(O)C(C(=O)O)C(O)CC(=O)CC(O)CC(O)CC(O)CC(=O)CCCC(=O)CC(=O)OC1C(C)CC(C)C(O)CC(=O)c1ccc(N)cc1` (stereo partly drawn), for which the neuronal differentiation score in the assay on ReNCell VM [1] (library: Spectrum) is inactive: 0. Further, the “dopaminergic neuron differentiation score” value in the assay with ReNCell VM [2] (library: Spectrum) was inactive: 0.
